Among all 1,400 compounds or so, about 30 (2%) were called active. About 15% were inconclusive and are not listed. Calls follow the shape of the dose curve; as a rule, active = well fitted inhibition curve with a large enough effect; inconclusive = small, poorly fitted or top-dose-only effect; inactive = flat fitted curve, though single readings scatter. This is one part of the list.
Experiment: Firefly Luciferase Counterscreen for Inhibitors of ATXN expression
Details: luminescence; series mostly up to 57.5 µM; activity change, negative = inhibition: at the top concentration
Outline: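 Recombinant firefly luciferase at 10 nM final in 50 mM Tris pH 7.5, 10 mM MgCl2, 0.05% BSA, 0.01% Tween20 with substrate; compounds up to 57 uM final, 10 min room temperature, end-point luminescence. Buffer-only wells define 100% inhibition.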
% is scaled to controls: 0 for no effect and ±100 for the full control effect.

| SMILES | activity change, negative = inhibition |
| --- | --- |
| O=C(Nc1ccc(Cc2ccncc2)cc1)c1ccc(S(=O)(=O)N2CCCC2)cc1 | inactive: -0.827% |
| OCCNc1c2ccccc2nc2c(F)c(F)c(F)c(F)c12 | inactive: -2.52% |
| O=[N+]([O-])c1ccccc1S(=O)(=O)Nc1cccc2cccnc12 | inactive: -7.56% |
| CCOC(=O)c1ccccc1NC(=O)CSc1nc2ccccc2c(=O)n1CCCN1CCOCC1 | inactive: 0.291% |
| Cc1c(Cl)cccc1NC(=O)N1CCCN(c2nc(-c3ccccc3)ns2)CC1 | inactive: -3.2% |
| N#C/C(=C\c1ccc([N+](=O)[O-])o1)c1nc2ccccc2[nH]1 | inactive: -5% |
| Cc1cc(C)n2nc(C(=O)N/N=C/c3c4ccccc4cc4ccccc34)nc2n1 | inactive: -7.93% |
| O=S(=O)(c1ccccc1)N1CCN(c2ccnc3cc(Cl)ccc23)CC1 | inactive: 2.99% |
| O=C(COc1ccccc1)NCC(=O)N/N=C/c1ccc(O)cc1O | inactive: 10.1% |
| Cn1nnnc1Sc1ncnc2scc(-c3ccccc3Br)c12 | inactive: -6.21% |
| Nc1c2ccccc2nc2ccccc12 | inactive: -4.35% |
| O=C(CNC(=O)c1ccco1)N/N=C/c1cc(Br)ccc1O | inactive: 0.605% |
| C[C@@H](CN1C2=NC[C@H](Cc3ccccc3)N2C[C@H]1Cc1ccc(O)cc1)NC(=O)CCC1CCCCC1 | inactive: 1.67% |
| CCN(CC)CCNC(=O)c1ccc(NC(=O)c2ccc(Cl)c(S(=O)(=O)N3CCCCCC3)c2)cc1 | inactive: -1.29% |
| Cc1cccc2sc(NNC(=O)c3ccc(S(=O)(=O)N4CC(C)CC(C)C4)cc3)nc12 (stereo not drawn) | inactive: -14% |
| CCCCOc1ccc(NC2=NC3(CCCC3)N=C(N)N2)cc1 | inactive: 1.38% |
| CC1(C(=O)N/N=C/c2ccc([N+](=O)[O-])o2)CC1(Br)Br (stereo not drawn) | inactive: -2.6% |
| COc1cc(CC(=O)Nc2nc(-c3ccc(F)c(F)c3)cs2)cc(OC)c1OC | inactive: -3.38% |
| CN(c1ccccc1)S(=O)(=O)c1cccc(NC(=O)c2cc(=O)c3ccccc3o2)c1 | inactive: -0.345% |
| O=c1cc(N2CCN(c3ccccc3)CC2)[nH]c(=O)n1C1CCCCC1 | inactive: 2.44% |
| N#C/C(=C(/O)COC(=O)CSc1ccc(Cl)cc1)c1nc2ccccc2[nH]1 | inactive: -8.72% |
| CC(=O)c1cc(CN2CCC(C(=O)Nc3cccc(-c4cscn4)c3)CC2)cs1 | inactive: -1.74% |
| COc1cc(/C=N/Nc2snc(SC)c2C#N)cc(OC)c1OC | inactive: -9.89% |
| CCc1nc(N)nc(N)c1-c1ccc(N(C)Cc2ccccc2)c([N+](=O)[O-])c1 | inactive: -9.73% |

| SMILES | activity change, negative = inhibition |
| --- | --- |
| CCN(CC)c1cc(C)c2cc(NC(=O)c3ccccc3OC)ccc2n1 | inactive: -12% |
| Cc1ccc2sc(N(CCCN(C)C)C(=O)c3ccc(S(=O)(=O)N4CCCCCC4)cc3)nc2c1C | inactive: 1.53% |
| CCOc1ccc(NC(=O)Nc2nnc(CC(=O)NCc3ccccc3)s2)cc1 | inactive: 2.13% |
| CCCCCn1c(CN2CCN(c3cccc(Cl)c3)CC2)nc2c1c(=O)[nH]c(=O)n2C | inactive: 4.7% |
| CCC(=O)NC(c1ccc(OC)c(OC)c1)c1cc(Cl)c2cccnc2c1O (stereo not drawn) | inactive: -19% |
| NC(Cc1ccc(Cl)cc1)c1csc(Nc2cc(NCCCO)ncn2)n1 (stereo not drawn) | inactive: 1.08% |
| COc1ccc(CC(N)c2csc(NC(=O)c3ccccc3OC)n2)cc1 (stereo not drawn) | inactive: -15.2% |
| COc1cc(OC)c(OC)cc1/C=C1\CC(C)C/C(=C\c2cc(OC)c(OC)cc2OC)C1=O (stereo not drawn) | inactive: -4.51% |
| O=C(Nc1cccc(S(=O)(=O)c2cccc(NC(=O)c3ccco3)c2)c1)c1ccco1 | inactive: 0.819% |
| O=C(CSC1=NNC(c2ccccn2)S1)Nc1ccc(C(F)(F)F)cc1 (stereo not drawn) | inactive: -5.9% |
| CCOC(=O)c1c(SCCN2CCCCC2)n(-c2ccccc2)c(=S)n(-c2ccccc2)c1=O | inactive: -0.73% |
| O=C(Nc1ccc(N2CCN(C(=O)c3ccco3)CC2)c(Cl)c1)c1c(F)c(F)c(F)c(F)c1F | inactive: 2.69% |
| CCOc1ccc(C(CN2CCOCC2)C(C)=O)cc1OC (stereo not drawn) | inactive: 1.8% |
| O=C(CNC(=O)c1cccc(F)c1)N/N=C/c1cc(Br)ccc1OC(=O)/C=C/c1ccco1 | inactive: -1.86% |
| O=c1cnnc(N/N=C/c2ccccn2)[nH]1 | inactive: 3.6% |
| Cc1ccc(C(=O)O)cc1N1C(=O)c2cccc3c([N+](=O)[O-])ccc(c23)C1=O | inactive: -15.6% |
| C=CCN=c1scc(-c2ccc3c(c2)NC(=O)CO3)n1/N=C(\C)c1ccccn1 | inactive: -2.89% |
| COc1ccc(C(C)=O)cc1CC1(C)C(=O)Nc2ccc(-c3cccc(C(F)(F)F)c3)cc21 (stereo not drawn) | inactive: 3.08% |
| Cc1ccnc(NC(=O)C2CCN(S(=O)(=O)c3c(C)c(C)cc(C)c3C)CC2)c1 | inactive: -6% |
| COc1ccccc1-c1ccc2c(c1)C(C)(Cc1cccc(F)c1)C(=O)N2 (stereo not drawn) | inactive: -2.21% |
| Cn1c(/C=C/c2ccc(Cl)cc2Cl)c([N+](=O)[O-])c(=O)n(C)c1=O | inactive: -9.21% |
| C[C@H]1O[C@@H](O[C@H]2[C@@H](O)C[C@H](O[C@H]3[C@@H](O)C[C@H](O[C@H]4CC[C@@]5(C)[C@H](CC[C@@H]6[C@@H]5C[C@@H](O)[C@]5(C)[C@@H](C7=CC(=O)OC7)CC[C@]65O)C4)O[C@@H]3C)O[C@@H]2C)C[C@H](O)[C@@H]1O | inactive: 3.6% |
| O=C(CNC(=O)c1cccc(Br)c1)N/N=C/c1cc(Br)cc(Br)c1O | inactive: -19% |
| O=C(NC(Nc1nc2ccc([N+](=O)[O-])cc2s1)(C(F)(F)F)C(F)(F)F)c1ccccc1 | inactive: -7.13% |

Gathered by group, the compounds so far containing a CF3 group (3)

| SMILES | activity change, negative = inhibition |
| --- | --- |
| O=C(CSC1=NNC(c2ccccn2)S1)Nc1ccc(C(F)(F)F)cc1 (stereo not drawn) | inactive: -5.9% |
| COc1ccc(C(C)=O)cc1CC1(C)C(=O)Nc2ccc(-c3cccc(C(F)(F)F)c3)cc21 (stereo not drawn) | inactive: 3.08% |
| O=C(NC(Nc1nc2ccc([N+](=O)[O-])cc2s1)(C(F)(F)F)C(F)(F)F)c1ccccc1 | inactive: -7.13% |
